Measured values: patent publication US4457919A, “Method of imparting immunomodulating, antiviral or antitumor activity” (Newport Pharmaceutical International, Inc., priority 1982, dated 1984)
Where two headings read alike, the source gives them in different places. The name of at least one read-out is uncertain.

Assay: Blood levels after i.p. administration to mice
Format: in vivo
Excerpt: This clearly establishes the fact that NPT 15458 and NPT 15457 can produce NPT 15392 in vivo and further at least one of these derivatives gives much higher blood levels allowing for greater activity.

| Compound | concentration (animal # 1, 360 μm/kg of compound administered, read-out: Blood Level of NPT 15392) [nM] | concentration (animal # 2, 360 μm/kg of compound administered, read-out: Blood Level of NPT 15392) [nM] | concentration (animal # 1, 360 μm/kg of compound administered, read-out: Blood Level of NPT 15457) [nM] | concentration (animal # 2, 360 μm/kg of compound administered, read-out: Blood Level of NPT 15457) [nM] |
| --- | --- | --- | --- | --- |
| CCCCCC[C@H]([C@H](C)O)n1cnc2c(=O)[nH]cnc21 (relative stereo) [NPT 15392, erythro-9-(2-hydroxy-3-nonyl)-hypoxanthine, reference compound] | 220 | 680 |  |  |
| CCCCCC[C@H]([C@H](C)OC(=O)CCC(=O)O)n1cnc2c(=O)[nH]cnc21 (relative stereo) [NPT 15457, Erythro-9-(2-Succinoxy-3-Nonyl) Hypoxanthine] |  |  | 1400 | 570 |
